Among the data in publication PMC11623946 are binding values, retold here.

No constants are given. Whether binding was seen depends on the method and setting. In cells and extracts the contact can be indirect. Some binding calls cover weakened binding; strength is not graded here.

In test [1] the target is T1, ASCL1 (human (endogenous in NCI-H660)), P50553.
T1 chain: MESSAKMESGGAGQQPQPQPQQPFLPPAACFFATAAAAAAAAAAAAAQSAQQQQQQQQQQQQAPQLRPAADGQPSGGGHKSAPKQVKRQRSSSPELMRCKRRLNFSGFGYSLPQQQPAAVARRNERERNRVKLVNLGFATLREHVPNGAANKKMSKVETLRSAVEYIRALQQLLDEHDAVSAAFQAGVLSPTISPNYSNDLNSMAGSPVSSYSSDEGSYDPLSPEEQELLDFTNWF
Put plainly: proximity ligation; NCI-H660 cells fixed with 4% paraformaldehyde, permeabilised; FOXA2 (rabbit) and ASCL1 (mouse) antibodies, Duolink In Situ Detection Reagents Red; proximity <40 nm. The following applies: remark: other sources report otherwise.

Test [2] deals with T1, ASCL1 (human (endogenous in NCI-H660)), …. Put plainly: co-IP; NCI-H660 lysate (IP Lysis Buffer), 1,000 ug protein, ASCL1 antibody with Protein A+G magnetic beads overnight at 4 C; normal mouse IgG as isotype control; blot for ASCL1 and FOXA2. Conditions: remark: other sources report otherwise.

B1: FOXA2, Q9Y261 1-457 (protein)
chain: MLGAVKMEGHEPSDWSSYYAEPEGYSSVSNMNAGLGMNGMNTYMSMSAAAMGSGSGNMSAGSMNMSSYVGAGMSPSLAGMSPGAGAMAGMGGSAGAAGVAGMGPHLSPSLSPLGGQAAGAMGGLAPYANMNSMSPMYGQAGLSRARDPKTYRRSYTHAKPPYSYISLITMAIQQSPNKMLTLSEIYQWIMDLFPFYRQNQQRWQNSIRHSLSFNDCFLKVPRSPDKPGKGSFWTLHPDSGNMFENGCYLRRQKRFKCEKQLALKEAAGAAGSGKKAAAGAQASQAQLGEAAGPASETPAGTESPHSSASPCQEHKRGGLGELKGTPAAALSPPEPAPSPGQQQQAAAHLLGPPHHPGLPPEAHLKPEHHYAFNHPFSINNLMSSEQQHHHSHHHHQPHKMDLKAYEQVMHYPGYGSPMPGSLAMGPVTNKTGLDASPLAADTSYYQGVYSRPIMNSS
Consider B1, for which the binding entry in test [1] and in test [2] was “binds” in each case.
